For this test, the target named is T1, MBP–CstF77 fusion protein (human CstF77 residues 666–717), from E. coli (human) (UniProt Q12996).
T1 sequence: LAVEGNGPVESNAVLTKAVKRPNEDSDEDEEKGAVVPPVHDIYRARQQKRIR
The test can be described thus: pull-down; amylose resin; MBP–CstF77 (human, residues 666–717) as bait, purified HCC as prey; control: amylose beads alone; both purified.

By UniProt entry, the sequences of proteins in these tests, tags left out. Where a name states a change or a piece, a line headed by the entry shows the natural chain unless it says otherwise.
UniProt Q9UKF6: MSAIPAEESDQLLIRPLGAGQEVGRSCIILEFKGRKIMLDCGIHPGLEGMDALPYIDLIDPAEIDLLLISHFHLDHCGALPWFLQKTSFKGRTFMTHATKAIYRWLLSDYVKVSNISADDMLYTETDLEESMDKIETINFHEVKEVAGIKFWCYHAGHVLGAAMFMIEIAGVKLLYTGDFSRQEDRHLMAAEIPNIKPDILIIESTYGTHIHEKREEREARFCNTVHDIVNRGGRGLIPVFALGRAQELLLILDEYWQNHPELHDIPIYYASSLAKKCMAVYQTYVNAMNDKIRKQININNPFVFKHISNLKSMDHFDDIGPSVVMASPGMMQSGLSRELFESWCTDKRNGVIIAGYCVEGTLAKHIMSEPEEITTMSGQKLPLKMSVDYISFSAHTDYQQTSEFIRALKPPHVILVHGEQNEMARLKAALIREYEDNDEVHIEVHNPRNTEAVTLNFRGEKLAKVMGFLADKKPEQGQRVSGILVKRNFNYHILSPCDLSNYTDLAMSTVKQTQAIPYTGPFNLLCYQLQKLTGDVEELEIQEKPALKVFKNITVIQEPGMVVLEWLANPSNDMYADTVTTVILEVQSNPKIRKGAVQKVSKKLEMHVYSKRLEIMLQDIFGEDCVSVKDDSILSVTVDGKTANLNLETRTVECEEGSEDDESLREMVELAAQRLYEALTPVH

Data on one substance can be found in PMC12774660 (Nucleic Acids Research, 2026).

No constants are given. Whether binding was seen depends on the method and setting. Tags and fused reporters may be left off the sequences shown.

Take “histone pre-mRNA cleavage complex (HCC) (from UniProt Q9UKF6 1-684; Q9P2I0 1-782; Q92797 30-1101; P33240 1-577)”: the binding result is listed as “no binding”.
